Patent US20110142812A1 (STC UNM, published 2011)
These are yes or no findings as the source states them, for the method shown. Some binding calls cover weakened binding; strength is not graded here.

The chains behind the UniProt entries cited, without tags or fusion partners. Residues count along the entry.
UniProt P08101, residues 30-330: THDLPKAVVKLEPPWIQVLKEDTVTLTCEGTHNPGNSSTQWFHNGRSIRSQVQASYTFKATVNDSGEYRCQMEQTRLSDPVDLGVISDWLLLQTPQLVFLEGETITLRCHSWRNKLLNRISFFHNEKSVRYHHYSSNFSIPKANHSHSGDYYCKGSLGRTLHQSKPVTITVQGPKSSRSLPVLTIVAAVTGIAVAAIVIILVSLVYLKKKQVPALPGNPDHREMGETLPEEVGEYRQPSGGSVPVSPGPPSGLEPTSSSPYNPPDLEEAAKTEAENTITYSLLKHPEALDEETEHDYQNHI

Target: mouse FcγRIIb on macrophages (mouse) (UniProt P08101)
Test: two-color flow cytometry on mouse peritoneal macrophages (FcR γ-chain-/-), FITC-2C10 detection

binding: binds
B1: Y175L CRP (recombinant mutant C-reactive protein in which tyrosine 175 is replaced by leucine) (ligand)
chain: QTDMSRKAFVFPKESDTSYVSLKAPLTKPLKAFTVCLHFYTELSSTRGYSIFSYATKRQDNEILIFWSKDIGYSFTVGGSEILFEVPEVTVAPVHICTSWESASGIVEFWVDGKPRVRKSLKKGYTVGAEASIILGQEQDSFGGNFEGSQSLVGDIGNVNMWDFVLSPDEINTILLGGPFSPNVLNWRALKYEVQGEVFTKPQLWP
notes: also called CRP mutant Y175L; recombinant mutant CRP (Y175L)
